Inconclusive means that the source gave no clear call. Such entries were picked first, then a sample of the others. Potencies beside an inconclusive call are fits to weak or partial responses and may not hold up. Activity calls are given as the source filed them. Calls follow the shape of the dose curve; as a rule, active = well fitted activation curve with a large enough effect in the signal ratio; inconclusive = small, poorly fitted or top-dose-only effect, or effect the other way, or a change in a side signal; inactive = flat fitted curve, though single readings scatter; the % refers to the signal ratio.
assay: qHTS assay for small molecule agonists of the antioxidant response element (ARE) signaling pathway (AID 651741); conditions: HepG2 ARE-bla reporter, beta-lactamase FRET ratio, 16 h; activation: at 96 µM (top of the series); as to activation: % of control where 0% means no effect
In short: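 Reporter: beta-lactamase under ARE, stably in HepG2. Exposure: 16 h, 37 C, compounds delivered in DMSO by pin tool after 5 h cell preincubation. Readout: FRET substrate fluorescence after 2 h at RT.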
Potency is read from the fitted curve at half-maximal effect.

| SMILES | Potency | activation |
| --- | --- | --- |
| COc1cc(OC)c(C(=O)CCCN2CCCC2)c(OC)c1 | inactive | – |
| CC1(C)NC(=O)N(c2ccc([N+](=O)[O-])c(C(F)(F)F)c2)C1=O | active: 54.5 µM | – |
| CC(C)NCC(O)c1ccc(O)c(O)c1 (stereo unspecified) | inconclusive: 47.3 µM [activator, partial curve] | inconclusive: 9.1% |
| CCCCC(CC)COC(=O)C(C#N)=C(c1ccccc1)c1ccccc1 (stereo unspecified) | inconclusive: 75 µM [activator, partial curve] | – |
| COc1ccc(Cl)cc1C(=O)NCCc1ccc(S(=O)(=O)NC(=O)NC2CCCCC2)cc1 | inconclusive: 61.1 µM [activator, partial curve] | – |
